Experimental data reported in PMC11371196.

T1: 3xFlag-TurboID-MCTP3 (Arabidopsis thaliana) (UniProt Q9M2R0)
T1 sequence: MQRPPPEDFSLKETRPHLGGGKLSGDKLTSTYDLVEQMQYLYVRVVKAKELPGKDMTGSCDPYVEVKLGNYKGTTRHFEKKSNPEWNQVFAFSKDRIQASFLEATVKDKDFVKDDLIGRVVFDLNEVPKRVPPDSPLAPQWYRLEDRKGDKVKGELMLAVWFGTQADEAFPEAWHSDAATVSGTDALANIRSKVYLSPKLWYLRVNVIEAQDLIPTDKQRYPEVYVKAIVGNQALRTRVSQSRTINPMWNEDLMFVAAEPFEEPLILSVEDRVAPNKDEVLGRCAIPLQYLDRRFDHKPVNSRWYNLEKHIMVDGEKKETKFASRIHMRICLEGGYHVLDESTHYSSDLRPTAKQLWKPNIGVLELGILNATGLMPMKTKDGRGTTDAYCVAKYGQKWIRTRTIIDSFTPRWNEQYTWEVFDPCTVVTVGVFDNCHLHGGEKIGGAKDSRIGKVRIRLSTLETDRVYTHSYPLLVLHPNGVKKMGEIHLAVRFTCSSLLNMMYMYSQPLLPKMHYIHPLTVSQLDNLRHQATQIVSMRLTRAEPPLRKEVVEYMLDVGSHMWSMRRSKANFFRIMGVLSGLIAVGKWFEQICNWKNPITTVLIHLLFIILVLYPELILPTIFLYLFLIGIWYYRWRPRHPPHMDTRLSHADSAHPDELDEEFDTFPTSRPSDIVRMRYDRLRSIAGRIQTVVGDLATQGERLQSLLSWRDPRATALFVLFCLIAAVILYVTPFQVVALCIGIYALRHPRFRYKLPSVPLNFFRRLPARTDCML

T2: PDLP6-TurboID-3xFlag (Arabidopsis thaliana) (UniProt Q9ZU94)
T2 sequence: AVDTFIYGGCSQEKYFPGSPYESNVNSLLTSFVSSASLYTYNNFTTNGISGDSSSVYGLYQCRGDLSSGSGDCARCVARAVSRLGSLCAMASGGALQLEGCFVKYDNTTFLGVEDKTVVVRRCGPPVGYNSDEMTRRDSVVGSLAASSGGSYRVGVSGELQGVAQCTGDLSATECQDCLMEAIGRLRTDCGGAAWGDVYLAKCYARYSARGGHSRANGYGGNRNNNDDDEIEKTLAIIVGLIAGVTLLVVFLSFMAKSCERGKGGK

T3: PDLP5-TurboID-3xFlag (Arabidopsis thaliana) (UniProt Q8GUJ2)
T3 sequence: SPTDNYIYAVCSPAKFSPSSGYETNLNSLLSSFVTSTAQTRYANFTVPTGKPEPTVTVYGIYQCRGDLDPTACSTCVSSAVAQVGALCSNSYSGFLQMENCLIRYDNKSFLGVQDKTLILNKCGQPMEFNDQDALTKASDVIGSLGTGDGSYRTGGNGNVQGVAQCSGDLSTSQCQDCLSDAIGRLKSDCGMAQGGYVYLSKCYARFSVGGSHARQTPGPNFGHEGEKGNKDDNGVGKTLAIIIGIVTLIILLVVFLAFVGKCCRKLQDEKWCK


Experiments:
Experiment in all cases: proximity labelling; TurboID fusions under ProUBQ10 in 14-day-old Arabidopsis seedlings, 50 μM biotin for 3 h at room temperature; biotinylated proteins enriched on streptavidin beads, TMT LC-MS/MS; compared with wild-type Col-0 and between baits
[1] = target: T1, 3xFlag-TurboID-MCTP3 (Arabidopsis thaliana)
[2] = target: T2, PDLP6-TurboID-3xFlag (Arabidopsis thaliana)
[3] = target: T3, PDLP5-TurboID-3xFlag (Arabidopsis thaliana)

| binding [1] | binding [2] | binding [3] | Binder |
| --- | --- | --- | --- |
| binds |  |  | HVA22C (protein, UniProt Q9S784 1-184) MPSNSGDDNVLQVLIKNFDVLALPLVTLVYPLYASVKAIETRSLPEDEQWLTYWVLYALISLFELTFSKPLEWFPIWPYMKLFGICWLVLPQFNGAEHIYKHFIRPFYRDPQRATTKIWYVPHKKFNFFPKRDDDDILTAAEKYMEQHGTEAFERMIVKKDSYERGRSSRGINNHMIFDDDYRY |
|  | binds | binds | CLV1 (receptor, UniProt Q9SYQ8 25-980) YTDMEVLLNLKSSMIGPKGHGLHDWIHSSSPDAHCSFSGVSCDDDARVISLNVSFTPLFGTISPEIGMLTHLVNLTLAANNFTGELPLEMKSLTSLKVLNISNNGNLTGTFPGEILKAMVDLEVLDTYNNNFNGKLPPEMSELKKLKYLSFGGNFFSGEIPESYGDIQSLEYLGLNGAGLSGKSPAFLSRLKNLREMYIGYYNSYTGGVPPEFGGLTKLEILDMASCTLTGEIPTSLSNLKHLHTLFLHINNLTGHIPPELSGLVSLKSLDLSINQLTGEIPQSFINLGNITLINLFRNNLYGQIPEAIGELPKLEVFEVWENNFTLQLPANLGRNGNLIKLDVSDNHLTGLIPKDLCRGEKLEMLILSNNFFFGPIPEELGKCKSLTKIRIVKNLLNGTVPAGLFNLPLVTIIELTDNFFSGELPVTMSGDVLDQIYLSNNWFSGEIPPAIGNFPNLQTLFLDRNRFRGNIPREIFELKHLSRINTSANNITGGIPDSISRCSTLISVDLSRNRINGEIPKGINNVKNLGTLNISGNQLTGSIPTGIGNMTSLTTLDLSFNDLSGRVPLGGQFLVFNETSFAGNTYLCLPHRVSCPTRPGQTSDHNHTALFSPSRIVITVIAAITGLILISVAIRQMNKKKNQKSLAWKLTAFQKLDFKSEDVLECLKEENIIGKGGAGIVYRGSMPNNVDVAIKRLVGRGTGRSDHGFTAEIQTLGRIRHRHIVRLLGYVANKDTNLLLYEYMPNGSLGELLHGSKGGHLQWETRHRVAVEAAKGLCYLHHDCSPLILHRDVKSNNILLDSDFEAHVADFGLAKFLVDGAASECMSSIAGSYGYIAPEYAYTLKVDEKSDVYSFGVVLLELIAGKKPVGEFGEGVDIVRWVRNTEEEITQPSDAAIVVAIVDPRLTGYPLTSVIHVFKIAMMCVEEEAAARPTMREVVHMLTNPPKSVANLIAF |
| binds |  |  | RTNLB6 (protein, UniProt Q6DBN4 1-253) MAEELEKSMHKEESLMEKIADKIHDHDSSSSSDSEHEKPESPSALKAKIYRLFGREKPVHKVLGGGLPADVFLWRDKKLSASVLGVATAIWVLFELVEYHFLSLVCHILIFALAALFLLSNAHAFMNKTPPKIPEIHIKEEHFLMIVSALRNELNQAFVILRSIALGRDLKKFLMVVFGLWIISVVGNWFNFLTLVYICFVVLHTVPMLYEKHEDKVDPVAEKTLKELKKHYMVFDEKVLSKLPVASLKAKLG |

Results are given in words; binding and its absence hold for the method and conditions named. In cells and extracts the contact can be indirect. These calls come from enrichment with a bait or labelling near it, and not all partners need be listed. Tags and fused reporters may be left off the sequences shown.
